The record followed here is the supplement of paper PMC11006884.

Chains of the proteins cited; added tags and fusions are not shown. Lines headed by an entry give the natural chain unless they say otherwise; changes in a name come on top.
UniProt Q8TC07: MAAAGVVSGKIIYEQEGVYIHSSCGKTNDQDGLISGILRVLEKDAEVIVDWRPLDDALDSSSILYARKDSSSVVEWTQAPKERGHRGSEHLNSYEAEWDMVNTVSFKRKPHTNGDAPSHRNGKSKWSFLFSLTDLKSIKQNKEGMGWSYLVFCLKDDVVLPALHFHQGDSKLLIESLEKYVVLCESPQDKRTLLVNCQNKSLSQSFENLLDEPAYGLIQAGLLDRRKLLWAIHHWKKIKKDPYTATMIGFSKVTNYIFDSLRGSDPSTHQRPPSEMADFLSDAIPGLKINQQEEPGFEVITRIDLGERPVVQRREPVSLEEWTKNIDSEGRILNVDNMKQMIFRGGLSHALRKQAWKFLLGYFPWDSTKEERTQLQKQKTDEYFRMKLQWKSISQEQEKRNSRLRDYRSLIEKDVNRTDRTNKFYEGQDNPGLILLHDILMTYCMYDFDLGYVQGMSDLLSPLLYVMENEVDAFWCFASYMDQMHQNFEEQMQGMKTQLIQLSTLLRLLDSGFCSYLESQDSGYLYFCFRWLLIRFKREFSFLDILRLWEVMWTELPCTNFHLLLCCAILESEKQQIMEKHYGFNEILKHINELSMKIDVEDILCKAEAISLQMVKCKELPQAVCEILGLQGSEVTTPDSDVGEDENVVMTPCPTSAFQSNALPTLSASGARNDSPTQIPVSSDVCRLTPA
UniProt Q8N5K1: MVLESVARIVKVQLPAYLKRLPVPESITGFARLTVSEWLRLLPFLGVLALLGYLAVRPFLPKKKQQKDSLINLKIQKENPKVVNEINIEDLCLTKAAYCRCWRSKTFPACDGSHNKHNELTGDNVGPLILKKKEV
UniProt Q8TBC4: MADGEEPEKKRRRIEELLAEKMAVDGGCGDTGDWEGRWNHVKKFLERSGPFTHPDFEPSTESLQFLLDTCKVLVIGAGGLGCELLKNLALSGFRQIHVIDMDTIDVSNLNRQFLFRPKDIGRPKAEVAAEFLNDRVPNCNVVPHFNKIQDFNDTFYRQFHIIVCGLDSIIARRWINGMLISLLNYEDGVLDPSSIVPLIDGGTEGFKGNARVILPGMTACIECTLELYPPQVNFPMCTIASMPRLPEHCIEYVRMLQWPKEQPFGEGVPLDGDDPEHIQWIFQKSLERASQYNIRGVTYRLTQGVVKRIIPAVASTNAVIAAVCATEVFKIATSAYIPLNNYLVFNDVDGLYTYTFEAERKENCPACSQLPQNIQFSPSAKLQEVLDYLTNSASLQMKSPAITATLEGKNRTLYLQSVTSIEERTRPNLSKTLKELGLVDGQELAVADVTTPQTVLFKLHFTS
UniProt Q8TB52: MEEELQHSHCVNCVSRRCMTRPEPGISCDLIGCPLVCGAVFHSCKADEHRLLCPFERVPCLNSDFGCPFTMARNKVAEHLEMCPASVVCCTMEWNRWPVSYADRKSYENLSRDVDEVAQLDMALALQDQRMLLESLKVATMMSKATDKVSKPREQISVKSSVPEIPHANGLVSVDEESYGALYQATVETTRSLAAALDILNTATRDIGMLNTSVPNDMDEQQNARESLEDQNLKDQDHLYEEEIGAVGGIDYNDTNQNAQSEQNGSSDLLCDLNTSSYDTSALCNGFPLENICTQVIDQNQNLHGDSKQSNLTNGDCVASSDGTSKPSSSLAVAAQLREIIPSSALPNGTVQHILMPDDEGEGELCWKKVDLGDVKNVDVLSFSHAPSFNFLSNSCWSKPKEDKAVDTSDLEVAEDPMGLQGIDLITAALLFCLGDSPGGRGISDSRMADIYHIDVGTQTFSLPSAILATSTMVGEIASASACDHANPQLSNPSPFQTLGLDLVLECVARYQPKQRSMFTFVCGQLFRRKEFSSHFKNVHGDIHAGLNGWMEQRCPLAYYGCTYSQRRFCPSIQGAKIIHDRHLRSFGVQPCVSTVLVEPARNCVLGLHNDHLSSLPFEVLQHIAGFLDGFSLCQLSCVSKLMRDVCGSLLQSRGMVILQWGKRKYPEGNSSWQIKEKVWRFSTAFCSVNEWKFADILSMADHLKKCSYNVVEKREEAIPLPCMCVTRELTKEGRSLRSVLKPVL
UniProt Q8TEU7: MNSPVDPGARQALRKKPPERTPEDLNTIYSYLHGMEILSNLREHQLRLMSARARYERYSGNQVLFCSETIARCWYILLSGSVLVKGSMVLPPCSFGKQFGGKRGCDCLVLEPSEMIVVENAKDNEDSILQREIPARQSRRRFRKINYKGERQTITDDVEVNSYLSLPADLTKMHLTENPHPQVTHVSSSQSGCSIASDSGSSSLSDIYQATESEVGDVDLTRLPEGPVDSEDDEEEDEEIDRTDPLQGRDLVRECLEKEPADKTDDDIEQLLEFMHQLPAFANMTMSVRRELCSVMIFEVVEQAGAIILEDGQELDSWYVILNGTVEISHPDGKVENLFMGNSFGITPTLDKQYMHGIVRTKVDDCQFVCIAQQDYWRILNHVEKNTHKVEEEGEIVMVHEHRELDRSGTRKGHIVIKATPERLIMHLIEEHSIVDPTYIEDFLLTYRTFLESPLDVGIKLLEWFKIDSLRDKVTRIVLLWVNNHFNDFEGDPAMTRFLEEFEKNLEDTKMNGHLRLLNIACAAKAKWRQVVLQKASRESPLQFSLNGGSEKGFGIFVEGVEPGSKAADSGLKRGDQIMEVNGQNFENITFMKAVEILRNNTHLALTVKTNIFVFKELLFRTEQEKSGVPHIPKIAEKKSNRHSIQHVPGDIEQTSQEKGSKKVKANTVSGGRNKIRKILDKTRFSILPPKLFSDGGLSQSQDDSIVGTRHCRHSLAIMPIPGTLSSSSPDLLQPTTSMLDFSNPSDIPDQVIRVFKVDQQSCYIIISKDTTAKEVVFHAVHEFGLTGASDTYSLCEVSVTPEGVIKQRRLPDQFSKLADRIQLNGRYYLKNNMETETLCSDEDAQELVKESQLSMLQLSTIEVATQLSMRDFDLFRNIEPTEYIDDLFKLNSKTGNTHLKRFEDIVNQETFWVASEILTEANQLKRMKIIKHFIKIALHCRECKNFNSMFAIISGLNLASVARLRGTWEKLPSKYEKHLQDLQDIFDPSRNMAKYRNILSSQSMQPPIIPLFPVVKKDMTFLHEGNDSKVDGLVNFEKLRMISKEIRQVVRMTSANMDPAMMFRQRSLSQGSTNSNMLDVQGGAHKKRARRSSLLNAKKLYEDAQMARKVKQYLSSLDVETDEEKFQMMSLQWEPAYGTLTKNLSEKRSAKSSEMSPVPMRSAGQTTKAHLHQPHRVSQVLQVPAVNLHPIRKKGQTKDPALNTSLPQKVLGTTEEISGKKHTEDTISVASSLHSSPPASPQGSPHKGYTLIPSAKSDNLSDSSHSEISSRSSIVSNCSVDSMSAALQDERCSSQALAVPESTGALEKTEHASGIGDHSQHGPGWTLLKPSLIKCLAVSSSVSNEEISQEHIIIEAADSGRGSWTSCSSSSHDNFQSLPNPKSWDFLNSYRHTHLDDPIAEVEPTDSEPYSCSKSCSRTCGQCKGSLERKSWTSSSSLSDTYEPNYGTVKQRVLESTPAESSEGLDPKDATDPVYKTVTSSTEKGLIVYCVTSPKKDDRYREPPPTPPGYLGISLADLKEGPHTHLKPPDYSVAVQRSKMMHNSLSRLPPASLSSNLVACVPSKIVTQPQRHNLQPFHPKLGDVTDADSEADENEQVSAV
UniProt Q8NC60: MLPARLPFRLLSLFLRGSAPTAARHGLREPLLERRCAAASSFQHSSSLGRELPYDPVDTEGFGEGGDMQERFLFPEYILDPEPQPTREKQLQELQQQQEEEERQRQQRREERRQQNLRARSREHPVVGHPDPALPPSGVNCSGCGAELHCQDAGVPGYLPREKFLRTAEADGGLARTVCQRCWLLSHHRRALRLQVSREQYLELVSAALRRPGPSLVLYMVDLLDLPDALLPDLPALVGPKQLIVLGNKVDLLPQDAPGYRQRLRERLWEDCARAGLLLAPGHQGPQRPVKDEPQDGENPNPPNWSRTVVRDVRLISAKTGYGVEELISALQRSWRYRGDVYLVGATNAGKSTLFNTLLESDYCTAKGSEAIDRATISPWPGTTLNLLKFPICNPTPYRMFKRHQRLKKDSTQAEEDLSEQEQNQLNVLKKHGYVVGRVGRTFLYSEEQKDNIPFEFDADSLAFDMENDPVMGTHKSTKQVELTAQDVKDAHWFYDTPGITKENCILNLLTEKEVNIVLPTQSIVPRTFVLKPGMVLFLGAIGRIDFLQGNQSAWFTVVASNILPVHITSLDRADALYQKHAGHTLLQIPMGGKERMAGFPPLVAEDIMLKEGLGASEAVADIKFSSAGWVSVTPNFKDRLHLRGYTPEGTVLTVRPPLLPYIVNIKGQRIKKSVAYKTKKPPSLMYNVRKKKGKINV
UniProt Q8NEZ3: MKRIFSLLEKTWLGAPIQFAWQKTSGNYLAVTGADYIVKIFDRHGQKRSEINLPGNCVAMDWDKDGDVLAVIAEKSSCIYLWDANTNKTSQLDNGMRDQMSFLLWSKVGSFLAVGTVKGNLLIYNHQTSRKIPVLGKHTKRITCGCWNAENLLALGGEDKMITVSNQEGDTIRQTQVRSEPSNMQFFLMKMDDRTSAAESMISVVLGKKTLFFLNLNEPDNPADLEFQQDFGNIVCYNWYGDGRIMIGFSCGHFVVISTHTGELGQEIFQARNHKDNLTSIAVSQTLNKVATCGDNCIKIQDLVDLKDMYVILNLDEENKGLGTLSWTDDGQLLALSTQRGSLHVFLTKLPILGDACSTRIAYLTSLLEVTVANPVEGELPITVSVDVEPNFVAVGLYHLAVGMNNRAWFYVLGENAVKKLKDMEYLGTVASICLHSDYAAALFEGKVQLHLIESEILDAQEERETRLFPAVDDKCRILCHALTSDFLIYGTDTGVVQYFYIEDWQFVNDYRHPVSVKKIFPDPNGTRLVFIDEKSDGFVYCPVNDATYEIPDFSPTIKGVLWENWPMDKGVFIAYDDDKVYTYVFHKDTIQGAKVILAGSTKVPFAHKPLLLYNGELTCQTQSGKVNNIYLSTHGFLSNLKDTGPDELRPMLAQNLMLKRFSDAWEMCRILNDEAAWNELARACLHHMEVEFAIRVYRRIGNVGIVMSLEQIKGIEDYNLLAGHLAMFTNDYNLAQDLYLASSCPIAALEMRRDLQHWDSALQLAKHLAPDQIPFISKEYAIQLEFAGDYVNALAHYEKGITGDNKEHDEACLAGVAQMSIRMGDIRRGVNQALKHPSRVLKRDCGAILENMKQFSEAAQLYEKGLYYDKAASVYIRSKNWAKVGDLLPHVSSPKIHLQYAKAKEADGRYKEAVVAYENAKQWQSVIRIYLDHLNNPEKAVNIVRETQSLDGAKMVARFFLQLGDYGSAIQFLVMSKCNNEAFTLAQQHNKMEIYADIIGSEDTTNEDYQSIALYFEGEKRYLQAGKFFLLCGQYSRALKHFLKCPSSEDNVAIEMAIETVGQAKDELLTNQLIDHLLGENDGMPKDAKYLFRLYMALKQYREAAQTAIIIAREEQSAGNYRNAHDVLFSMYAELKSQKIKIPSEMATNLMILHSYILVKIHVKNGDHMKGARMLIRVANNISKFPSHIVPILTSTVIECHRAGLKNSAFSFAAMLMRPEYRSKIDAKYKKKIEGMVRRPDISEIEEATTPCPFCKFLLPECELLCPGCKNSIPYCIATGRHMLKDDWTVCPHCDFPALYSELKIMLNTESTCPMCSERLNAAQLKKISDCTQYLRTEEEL
UniProt Q8TD30: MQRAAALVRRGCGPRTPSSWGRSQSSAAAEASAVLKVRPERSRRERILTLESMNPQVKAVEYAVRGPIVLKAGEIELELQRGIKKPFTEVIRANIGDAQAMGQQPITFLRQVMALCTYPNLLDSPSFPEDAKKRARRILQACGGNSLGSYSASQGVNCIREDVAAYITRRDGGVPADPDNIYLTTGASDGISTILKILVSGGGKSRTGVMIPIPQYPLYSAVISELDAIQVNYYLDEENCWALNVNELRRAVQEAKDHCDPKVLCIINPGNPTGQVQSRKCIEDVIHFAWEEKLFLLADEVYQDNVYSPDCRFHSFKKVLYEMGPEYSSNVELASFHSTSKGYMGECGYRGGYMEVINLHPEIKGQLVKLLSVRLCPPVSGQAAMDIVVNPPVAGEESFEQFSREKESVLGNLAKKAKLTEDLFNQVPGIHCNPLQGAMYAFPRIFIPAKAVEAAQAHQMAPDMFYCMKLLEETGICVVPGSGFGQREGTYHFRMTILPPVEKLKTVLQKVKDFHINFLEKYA
UniProt Q8WWH5: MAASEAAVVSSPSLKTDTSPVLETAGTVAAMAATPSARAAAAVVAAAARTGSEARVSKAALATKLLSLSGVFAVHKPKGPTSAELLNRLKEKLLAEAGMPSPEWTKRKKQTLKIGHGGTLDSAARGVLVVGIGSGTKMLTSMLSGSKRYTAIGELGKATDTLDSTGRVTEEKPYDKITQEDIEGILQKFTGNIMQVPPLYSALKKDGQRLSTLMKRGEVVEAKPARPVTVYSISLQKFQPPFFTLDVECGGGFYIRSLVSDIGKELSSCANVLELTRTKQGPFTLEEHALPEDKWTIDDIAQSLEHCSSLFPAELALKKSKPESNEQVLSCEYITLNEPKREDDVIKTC

This is a selection; strong and weak results do not stand in their true shares. The data scatter; read single values as rough.

Compound in the assay: COC(=O)/C=C/c1ccccc1 [methyl cinnamate]
The assay is described as follows: log2 ratio of iodoacetamide-alkyne labeling of the cysteine site, DMSO over compound (competition); higher = stronger covalent engagement of the cysteine by the compound, active = 1 or more. Conditions: 500 µM; treatment time 1 h; system: HEK293T cell lysate. Summed up: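 For each cysteine, the log2 competition ratio is mean control-channel reporter intensity over mean compound-channel reporter intensity. HEK293T lysate (2 mg/mL) was exposed to vehicle or electrophile (500 µM, 1 h, ambient temperature), labelled with iodoacetamide alkyne (1 h), clicked to sCIP-TMT reagents, digested overnight with trypsin at 37 °C, streptavidin-enriched and analysed by Orbitrap Eclipse LC-MS/MS with FAIMS and FragPipe. Cysteines quantified in only one of three replicates, each with duplicate channels, were excluded.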
As to UniProt Q8NBU5_C310, the “log2 ratio of iodoacetamide-alkyne labeling” value (“log2 ratio” below) is inactive: -0.0517. Then TBC1D15 C686 (UniProt Q8TC07), with inactive: 0.284; and RDH13 C30 (UniProt Q8NBN7), with inactive: 0.249; and CISD2 C92 (UniProt Q8N5K1), with inactive: -0.071. With PSMF1 C185 (UniProt Q92530) the figure was inactive: -0.0327. Then UniProt Q8N163_C443, with inactive: 0.118; and UniProt Q8TDN6_C52, with inactive: 0.473; and PPFIBP2 C446 (UniProt Q8ND30), with inactive: 0.231. Regarding UBA3 C28 (UniProt Q8TBC4), the “log2 ratio” value was inactive: 0.311. With UBR7 C260 (UniProt Q8N806) the figure was inactive: 0.224; with LRRC47 C249 (UniProt Q8N1G4), inactive: 0.216; with Q8V1_C158, inactive: 0.469. Consider ALDH16A1 C472 (UniProt Q8IZ83), for which the “log2 ratio” value is inactive: -0.0237. Then FBXO30 C592 (UniProt Q8TB52), with inactive: 0.0605; and RAPGEF6 C1293 (UniProt Q8TEU7), with inactive: 0.0929; and ZC3H15 C105 (UniProt Q8WU90), with inactive: 0.388. In the case of UniProt Q8WVT3_C160, the “log2 ratio” value is inactive: -0.0614. With UniProt Q8N0W3_C484 the figure was inactive: 0.12. For the target IPO4 C95 (UniProt Q8TEX9), the “log2 ratio” value was inactive: 0.777. With WDR36 C866 (UniProt Q8NI36) the figure was inactive: 0.614. With NHLRC2 C161 (UniProt Q8NBF2) the figure was inactive: -0.433; with SLC38A9 C41 (UniProt Q8NBW4), inactive: -0.326. As for UniProt Q8NC60_C505, the “log2 ratio” value is inactive: -0.201. Then ATRIP C74 (UniProt Q8WXE1), with inactive: -0.28; and EHBP1 C672 (UniProt Q8NDI1), with inactive: 0.495. Consider SYNE1 C6090 (UniProt Q8NF91), for which the “log2 ratio” value is inactive: 0.62. Then UniProt Q8TDB4_C139, with inactive: 0.307; and WDR19 C1332 (UniProt Q8NEZ3), with inactive: 0.317. Consider DYNC2H1 C3975 (UniProt Q8NCM8), for which the “log2 ratio” value is inactive: 0.121. As to GPT2 C158 (UniProt Q8TD30), the “log2 ratio” value was inactive: 0.128. Then BICD2 C754 (UniProt Q8TD16), with inactive: 0.0383; and NKAP C349 (UniProt Q8N5F7), with inactive: 0.0588. For TRUB1 C331 (UniProt Q8WWH5), the “log2 ratio” value was inactive: 0.135. For TRUB1 C307 (UniProt Q8WWH5), the “log2 ratio” value is inactive: 0.134. Take DMXL2 C1833 (UniProt Q8TDJ6): the “log2 ratio” value is inactive: -0.0256. Consider UBR7 C424 (UniProt Q8N806), for which the “log2 ratio” value is inactive: 0.0211.

For the target UniProt Q8WYQ9_C159, the “log2 ratio” value is inactive: 0.0694.
